In paper PMC11867010:
Results are given in words; binding and its absence hold for the method and conditions named. Binding seen in cells or lysates may run through a third protein. Some entries that bind do so weakly or less than the wild type.

By UniProt entry, the sequences of proteins in these tests, tags left out. Where a name states a change or a piece, a line headed by the entry shows the natural chain unless it says otherwise. Chains listed by the source or under a name are the forms on record and can include a tag or linker.
UniProt P97879: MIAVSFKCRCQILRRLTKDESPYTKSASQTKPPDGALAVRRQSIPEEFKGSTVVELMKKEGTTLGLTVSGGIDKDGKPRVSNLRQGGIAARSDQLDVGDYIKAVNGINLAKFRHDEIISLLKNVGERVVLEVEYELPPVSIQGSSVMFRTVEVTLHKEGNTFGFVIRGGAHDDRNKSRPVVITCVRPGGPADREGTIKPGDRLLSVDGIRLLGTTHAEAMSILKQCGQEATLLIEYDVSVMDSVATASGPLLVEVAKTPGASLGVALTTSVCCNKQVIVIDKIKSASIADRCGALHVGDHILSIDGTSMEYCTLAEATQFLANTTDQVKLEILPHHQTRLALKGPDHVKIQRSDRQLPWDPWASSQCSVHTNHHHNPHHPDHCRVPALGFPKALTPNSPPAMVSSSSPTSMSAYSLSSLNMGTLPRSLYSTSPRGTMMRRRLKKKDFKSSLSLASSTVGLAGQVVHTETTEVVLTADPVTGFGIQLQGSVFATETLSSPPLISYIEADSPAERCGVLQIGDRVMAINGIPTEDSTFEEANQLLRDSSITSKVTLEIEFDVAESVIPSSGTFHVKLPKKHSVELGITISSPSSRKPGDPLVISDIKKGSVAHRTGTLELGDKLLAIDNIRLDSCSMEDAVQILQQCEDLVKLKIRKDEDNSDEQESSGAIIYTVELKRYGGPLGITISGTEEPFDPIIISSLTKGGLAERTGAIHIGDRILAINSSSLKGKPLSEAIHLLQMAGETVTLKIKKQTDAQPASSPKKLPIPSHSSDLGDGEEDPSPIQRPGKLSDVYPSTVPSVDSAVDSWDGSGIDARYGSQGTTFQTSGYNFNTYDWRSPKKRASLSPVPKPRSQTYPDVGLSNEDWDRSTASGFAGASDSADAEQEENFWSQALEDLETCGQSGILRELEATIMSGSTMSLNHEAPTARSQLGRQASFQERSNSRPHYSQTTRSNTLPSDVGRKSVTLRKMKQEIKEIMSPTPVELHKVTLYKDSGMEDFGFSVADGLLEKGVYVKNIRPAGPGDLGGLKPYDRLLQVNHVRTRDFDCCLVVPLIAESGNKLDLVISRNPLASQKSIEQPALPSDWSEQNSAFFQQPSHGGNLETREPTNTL
GluA3 (AMPA receptor subunit GluA3), wild type, full-length cDNA in pRK5-Dest (P19492-2, form named): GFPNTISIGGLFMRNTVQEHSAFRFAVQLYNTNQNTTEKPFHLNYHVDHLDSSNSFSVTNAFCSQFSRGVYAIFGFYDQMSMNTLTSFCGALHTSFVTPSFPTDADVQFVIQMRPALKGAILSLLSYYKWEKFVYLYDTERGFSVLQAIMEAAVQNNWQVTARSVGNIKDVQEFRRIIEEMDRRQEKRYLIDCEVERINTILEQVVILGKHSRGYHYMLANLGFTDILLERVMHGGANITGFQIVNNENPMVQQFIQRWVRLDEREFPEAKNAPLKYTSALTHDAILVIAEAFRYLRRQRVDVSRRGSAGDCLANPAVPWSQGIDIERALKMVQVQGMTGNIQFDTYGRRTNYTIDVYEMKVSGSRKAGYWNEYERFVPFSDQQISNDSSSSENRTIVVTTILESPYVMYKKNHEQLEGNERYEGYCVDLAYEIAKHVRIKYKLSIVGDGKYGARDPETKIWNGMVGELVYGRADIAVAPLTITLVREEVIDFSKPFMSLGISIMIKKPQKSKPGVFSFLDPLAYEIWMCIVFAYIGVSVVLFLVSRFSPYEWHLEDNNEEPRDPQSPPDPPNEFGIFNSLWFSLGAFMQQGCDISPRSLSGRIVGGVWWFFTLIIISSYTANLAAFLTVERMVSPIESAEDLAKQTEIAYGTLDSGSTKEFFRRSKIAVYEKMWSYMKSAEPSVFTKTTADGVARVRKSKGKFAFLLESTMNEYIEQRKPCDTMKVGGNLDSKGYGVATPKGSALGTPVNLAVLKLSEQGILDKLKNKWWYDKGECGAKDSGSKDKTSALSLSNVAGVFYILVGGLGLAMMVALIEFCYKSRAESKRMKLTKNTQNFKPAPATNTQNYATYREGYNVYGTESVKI
GluA3_(K887A), full-length cDNA in pRK5-Dest (P19492-2, form named): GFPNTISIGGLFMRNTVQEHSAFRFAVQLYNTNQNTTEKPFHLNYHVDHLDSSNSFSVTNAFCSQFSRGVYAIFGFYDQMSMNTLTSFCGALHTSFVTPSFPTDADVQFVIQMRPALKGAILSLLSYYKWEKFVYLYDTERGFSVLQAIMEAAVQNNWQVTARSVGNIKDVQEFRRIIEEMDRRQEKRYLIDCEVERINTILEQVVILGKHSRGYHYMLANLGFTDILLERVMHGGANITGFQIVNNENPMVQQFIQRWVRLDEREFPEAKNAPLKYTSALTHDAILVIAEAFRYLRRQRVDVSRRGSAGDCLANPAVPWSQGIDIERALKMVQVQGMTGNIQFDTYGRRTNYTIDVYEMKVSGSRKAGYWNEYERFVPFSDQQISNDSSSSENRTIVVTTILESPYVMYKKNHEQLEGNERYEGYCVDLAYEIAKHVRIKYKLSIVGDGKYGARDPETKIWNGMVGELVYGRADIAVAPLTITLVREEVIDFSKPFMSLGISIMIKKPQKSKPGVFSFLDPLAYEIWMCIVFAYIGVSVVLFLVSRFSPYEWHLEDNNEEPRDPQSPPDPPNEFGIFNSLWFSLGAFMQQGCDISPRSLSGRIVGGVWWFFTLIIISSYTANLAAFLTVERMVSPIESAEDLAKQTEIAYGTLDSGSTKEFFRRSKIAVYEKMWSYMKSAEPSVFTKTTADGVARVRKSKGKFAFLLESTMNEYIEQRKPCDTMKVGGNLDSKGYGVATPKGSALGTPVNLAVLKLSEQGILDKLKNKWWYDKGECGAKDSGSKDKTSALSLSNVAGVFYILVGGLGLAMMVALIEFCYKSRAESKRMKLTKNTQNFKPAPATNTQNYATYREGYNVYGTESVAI
GluA3_(S885A), full-length cDNA in pRK5-Dest (P19492-2, form named): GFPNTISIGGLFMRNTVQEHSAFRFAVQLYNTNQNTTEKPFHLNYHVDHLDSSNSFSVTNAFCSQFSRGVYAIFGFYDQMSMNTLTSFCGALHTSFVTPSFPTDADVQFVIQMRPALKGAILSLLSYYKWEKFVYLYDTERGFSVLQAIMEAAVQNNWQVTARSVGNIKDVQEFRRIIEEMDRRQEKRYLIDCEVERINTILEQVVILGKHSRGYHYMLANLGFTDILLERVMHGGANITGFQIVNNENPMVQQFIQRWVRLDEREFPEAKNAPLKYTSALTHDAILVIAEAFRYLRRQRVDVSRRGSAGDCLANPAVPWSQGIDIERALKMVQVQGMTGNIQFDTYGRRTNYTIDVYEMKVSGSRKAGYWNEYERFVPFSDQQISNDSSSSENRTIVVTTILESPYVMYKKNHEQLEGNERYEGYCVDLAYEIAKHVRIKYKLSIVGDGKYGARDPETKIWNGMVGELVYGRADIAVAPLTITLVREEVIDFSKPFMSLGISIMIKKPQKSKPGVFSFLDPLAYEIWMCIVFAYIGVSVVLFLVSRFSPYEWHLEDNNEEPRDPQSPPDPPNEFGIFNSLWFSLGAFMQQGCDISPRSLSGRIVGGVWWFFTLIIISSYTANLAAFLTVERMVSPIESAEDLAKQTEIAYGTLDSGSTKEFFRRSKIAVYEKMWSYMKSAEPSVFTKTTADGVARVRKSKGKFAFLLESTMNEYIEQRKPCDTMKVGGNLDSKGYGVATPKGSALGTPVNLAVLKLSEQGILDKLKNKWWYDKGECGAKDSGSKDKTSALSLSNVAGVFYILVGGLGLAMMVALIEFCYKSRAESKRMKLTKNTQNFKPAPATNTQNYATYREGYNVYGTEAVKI

molecular target: glutamate receptor-interacting protein (GRIP), V5-tagged (UniProt P97879); assay: co-IP; HEK cells co-transfected with Grip-V5 and a GluA3 variant; lysed after ~48 h in 25 mM HEPES/NaOH, 150 mM NaCl, pH 7.4, 2% Triton X-100; GRIP precipitated with anti-Grip (ABN27) and protein A/G agarose at 4°C, washed with 1% Triton X-100 buffer; blots with anti-GluA2/3 and anti-V5

Row | binding | Substance
1 | binds | GluA3 (AMPA receptor subunit GluA3), wild type, full-length cDNA in pRK5-Dest (from UniProt P19492-2 23-888)
2 | binds | GluA3_(K887A), full-length cDNA in pRK5-Dest (from UniProt P19492-2 23-888) (receptor)
3 | no binding | GluA3_(S885A), full-length cDNA in pRK5-Dest (from UniProt P19492-2 23-888) (receptor)
